According to paper PMC6699118:
No constants are given. Whether binding was seen depends on the method and setting. In cells and extracts the contact can be indirect. Some results given as binding are weak or reduced against the parent protein; the word gives no strength.

The chains behind the UniProt entries cited, without tags or fusion partners. Residues count along the entry.
UniProt Q5M848: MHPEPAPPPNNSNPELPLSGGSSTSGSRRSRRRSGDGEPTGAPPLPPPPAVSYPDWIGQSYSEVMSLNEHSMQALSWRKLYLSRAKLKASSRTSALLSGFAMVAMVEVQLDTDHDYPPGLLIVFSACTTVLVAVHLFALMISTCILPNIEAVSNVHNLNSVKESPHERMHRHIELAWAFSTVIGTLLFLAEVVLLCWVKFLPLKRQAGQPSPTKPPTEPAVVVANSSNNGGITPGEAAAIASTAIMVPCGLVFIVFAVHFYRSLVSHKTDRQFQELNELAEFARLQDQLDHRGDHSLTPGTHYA
UniProt P84903, residues 23-685: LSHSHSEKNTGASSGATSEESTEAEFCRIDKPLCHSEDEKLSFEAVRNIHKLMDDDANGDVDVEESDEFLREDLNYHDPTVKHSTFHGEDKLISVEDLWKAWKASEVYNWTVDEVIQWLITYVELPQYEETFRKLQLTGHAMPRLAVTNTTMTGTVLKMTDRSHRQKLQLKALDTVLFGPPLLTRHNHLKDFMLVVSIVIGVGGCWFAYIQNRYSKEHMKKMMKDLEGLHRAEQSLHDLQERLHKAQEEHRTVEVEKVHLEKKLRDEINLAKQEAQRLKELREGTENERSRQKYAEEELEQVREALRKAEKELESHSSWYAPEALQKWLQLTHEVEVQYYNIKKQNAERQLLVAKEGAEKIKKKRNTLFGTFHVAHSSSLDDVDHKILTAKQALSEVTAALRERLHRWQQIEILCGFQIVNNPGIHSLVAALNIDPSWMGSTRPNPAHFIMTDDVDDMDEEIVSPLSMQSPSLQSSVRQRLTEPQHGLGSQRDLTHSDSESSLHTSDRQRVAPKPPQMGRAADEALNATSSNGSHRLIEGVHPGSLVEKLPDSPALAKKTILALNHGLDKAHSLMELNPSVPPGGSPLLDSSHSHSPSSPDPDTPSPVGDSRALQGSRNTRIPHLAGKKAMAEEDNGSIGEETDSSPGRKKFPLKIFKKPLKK

Molecular target: calcium release-activated calcium channel protein 1 (rat (endogenous in FLSs)) (UniProt Q5M848)
Assay: co-IP; lysates of FLSs in IP lysis buffer with protease inhibitor; 1 ug antibody for STIM1 or ORAI1 and protein A/G beads, 4 °C overnight; Western blot for the other protein; cells untreated or treated with 200 uM resveratrol, 200 uM resveratrol + ORAI1 overexpression vector, or ORAI1 SiRNA (within 5 uM H2O2)

binding: binds
Substance: stromal interaction molecule 1 (from UniProt P84903 23-685)
